Source: PubChem BioAssay AID720504 (National Center for Advancing Translational Sciences (NCATS), 2013)
Out of some 360,000 compounds screened, about 10,000 (2.8%) were called active. Inconclusive results, whose numbers are uncertain, are shown with a selection of clear calls. Calls follow the shape of the dose curve; as a rule, active = well fitted inhibition curve with a large enough effect; inconclusive = small, poorly fitted or top-dose-only effect; inactive = flat fitted curve, though single readings scatter. Where the call is inconclusive, the potency comes from a doubtful curve fit.

Protein sequences, listed by entry. Tags and fused reporters are not part of them.
UniProt P53350, whole entry, looked up: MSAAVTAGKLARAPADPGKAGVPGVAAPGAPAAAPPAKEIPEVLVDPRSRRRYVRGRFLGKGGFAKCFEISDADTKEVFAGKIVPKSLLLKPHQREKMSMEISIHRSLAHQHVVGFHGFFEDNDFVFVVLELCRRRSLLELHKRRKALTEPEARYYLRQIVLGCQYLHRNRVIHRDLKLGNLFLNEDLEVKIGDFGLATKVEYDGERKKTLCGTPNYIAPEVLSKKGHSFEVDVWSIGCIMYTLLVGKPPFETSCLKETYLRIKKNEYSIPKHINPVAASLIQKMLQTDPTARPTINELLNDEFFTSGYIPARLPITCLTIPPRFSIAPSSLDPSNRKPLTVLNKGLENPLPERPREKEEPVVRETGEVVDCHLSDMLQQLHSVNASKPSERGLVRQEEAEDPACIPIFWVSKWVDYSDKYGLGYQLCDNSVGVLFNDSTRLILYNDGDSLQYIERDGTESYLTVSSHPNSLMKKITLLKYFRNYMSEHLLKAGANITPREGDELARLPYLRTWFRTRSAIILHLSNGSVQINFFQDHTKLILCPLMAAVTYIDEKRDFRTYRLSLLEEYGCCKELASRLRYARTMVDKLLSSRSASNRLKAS

Molecular target: Serine/threonine-protein kinase PLK1 (Homo sapiens) (UniProt P53350)
Assay: qHTS for Inhibitors of PLK1-PDB (polo-like kinase 1 - polo-box domain): Primary Screen; also: nearly all actives have a fitted effect of over 65% in size; as to max response, negative = inhibition: series mostly up to about 57 µM
Conditions: Plk1 PBD binding of FITC phosphopeptide, fluorescence polarization
% is scaled to controls: 0 for no effect and ±100 for the full control effect; potency is read from the fitted curve at half-maximal effect.

SMILES | max response, negative = inhibition | Potency
Cc1c(C(=O)N/N=C/c2ccc(N3CCOCC3)cc2)nc2ccccn12 | inactive: -5.62% | –
Cc1ccc(NC(=O)CCS(=O)(=O)c2ccc(Br)s2)cc1 | – | active: 26.7 µM
O=C(NC1CCCCCC1)C(=S)NCCc1ccccc1 | – | active: 10.6 µM
COc1cccc(NC(=O)CSc2nc3c(sc4ccccc43)c(=O)n2CCN(C)C)c1 | inconclusive: -30.6% [inhibitor] | –
CSc1ccc(S(=O)(=O)NCC(=O)OCC(=O)N(C)Cc2ccccc2)cc1[N+](=O)[O-] | inactive: -7.25% | –
CN1c2ccsc2C(O)=C(C(=S)Nc2ccc(F)c(Cl)c2)S1(=O)=O | – | inconclusive: 37.7 µM [inhibitor, single point]
COc1cccc(-c2cnc(OC(C)(C)C)nc2OC(C)(C)C)c1 | – | inconclusive: 23.8 µM [inhibitor, single point]
NC(=O)c1ccsc1NC(=O)COC(=O)c1nc(Cl)ccc1Cl | inactive: -9.48% | –
CC(Sc1nnc(Cn2c(=O)sc3ccccc32)n1C)c1ccccc1 (stereo not given) | – | inconclusive: 29.9 µM [inhibitor, partial curve]
COc1ccc(C2=CC3=C(Br)C(=O)C(C)(OC(=O)c4cccs4)C(=O)C3=CO2)cc1 (stereo not given) | – | active: 8.44 µM
CCNC(=O)NC(=O)CSc1ccc(S(=O)(=O)N(C)C2CCCCC2)cn1 | – | inconclusive: 29.9 µM [inhibitor, single point]
COc1ccc(NS(=O)(=O)c2cc(NC(=O)CC3CCCC3)ccc2N2CCOCC2)cc1 | – | inconclusive: 26.7 µM [inhibitor, partial curve]
N#Cc1cc([N+](=O)[O-])ccc1NC(=O)CSc1n[nH]c(=O)n1C1CC1 | inactive: -7.11% | –
Cc1nc(-c2cccc(NC(=O)c3ccc(Cl)c(S(=O)(=O)N4CCCC4)c3)c2)cs1 | inactive: 6.51% | –
CCOC(=O)CSC1=NC(=O)/C(=C\c2ccc(OC(C)=O)cc2)S1 | – | active: 2.12 µM
CC1CCc2nn(CC(=O)NCc3ccc(F)cc3)cc2C1 (stereo not given) | – | inconclusive: 37.7 µM [inhibitor, single point]
C=CCC1CCC/C(=N\NS(=O)(=O)c2ccc(C)cc2)C1 (stereo not given) | inactive: -22.4% | –
Cc1ccccc1NC(=O)c1ccc(Nc2c([N+](=O)[O-])cc([N+](=O)[O-])c3ccccc23)cc1 | inactive: -3.44% | –
O=C(CNCc1cccs1)Nc1cc(S(=O)(=O)N2CCCC2)ccc1Cl | – | inconclusive: 26.7 µM [inhibitor, partial curve]
CC1(C)CC(N2CCCCC2)=CC(=[N+]2CCCCC2)C1 | inactive: -2.48% | –

Four entries already listed, ordered by length of the SMILES, rising.
SMILES | max response, negative = inhibition | Potency
CC(Sc1nnc(Cn2c(=O)sc3ccccc32)n1C)c1ccccc1 (stereo not given) | – | inconclusive: 29.9 µM [inhibitor, partial curve]
CCNC(=O)NC(=O)CSc1ccc(S(=O)(=O)N(C)C2CCCCC2)cn1 | – | inconclusive: 29.9 µM [inhibitor, single point]
N#Cc1cc([N+](=O)[O-])ccc1NC(=O)CSc1n[nH]c(=O)n1C1CC1 | inactive: -7.11% | –
Cc1ccccc1NC(=O)c1ccc(Nc2c([N+](=O)[O-])cc([N+](=O)[O-])c3ccccc23)cc1 | inactive: -3.44% | –
